Some of the results follow.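 The calls were made as follows: active = dose-dependent thermal stabilisation significant by F-test of dose-response against flat model at 10% FDR; inactive = not significant.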
Compound: Nc1nc2c(ncn2[C@@H]2O[C@H](COP(=O)(O)OP(=O)(O)OP(=O)(O)O)[C@@H](O)[C@H]2O)c(=O)[nH]1
Experiment: dose-dependent thermal stabilisation call (2D-TPP, DLPTP, 10% FDR) (binary (1 = stabilised)); higher = stabilised by the compound
Conditions: system: Jurkat gel-filtered lysate; concentration range 1-500 µM

Sequences of proteins named here, by UniProt entry; tags and fusion partners are left off. A change or cut given only in a name is not applied to a line headed by its entry.
UniProt O43813, whole entry: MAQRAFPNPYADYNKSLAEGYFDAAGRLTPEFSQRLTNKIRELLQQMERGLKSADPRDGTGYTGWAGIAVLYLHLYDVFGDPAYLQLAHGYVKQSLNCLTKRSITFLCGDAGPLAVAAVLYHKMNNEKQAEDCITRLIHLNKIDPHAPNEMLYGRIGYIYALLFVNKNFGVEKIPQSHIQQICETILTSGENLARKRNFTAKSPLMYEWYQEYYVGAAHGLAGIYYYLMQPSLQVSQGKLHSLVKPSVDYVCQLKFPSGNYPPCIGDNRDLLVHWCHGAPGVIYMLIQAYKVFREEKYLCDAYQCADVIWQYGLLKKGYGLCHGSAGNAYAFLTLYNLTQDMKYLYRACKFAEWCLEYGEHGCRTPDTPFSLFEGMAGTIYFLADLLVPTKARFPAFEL
UniProt Q96JN0: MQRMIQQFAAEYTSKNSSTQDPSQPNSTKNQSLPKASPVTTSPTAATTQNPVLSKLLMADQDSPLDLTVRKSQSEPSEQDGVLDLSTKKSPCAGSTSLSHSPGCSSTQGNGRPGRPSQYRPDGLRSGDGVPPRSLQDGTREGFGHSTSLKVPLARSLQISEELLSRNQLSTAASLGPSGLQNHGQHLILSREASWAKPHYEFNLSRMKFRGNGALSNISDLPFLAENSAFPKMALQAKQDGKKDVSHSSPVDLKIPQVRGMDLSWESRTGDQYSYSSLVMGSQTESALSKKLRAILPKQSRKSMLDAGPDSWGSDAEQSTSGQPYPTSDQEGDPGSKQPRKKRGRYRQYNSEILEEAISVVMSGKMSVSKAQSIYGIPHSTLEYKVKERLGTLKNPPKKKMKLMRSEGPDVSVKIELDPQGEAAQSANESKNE
UniProt P48059, whole entry: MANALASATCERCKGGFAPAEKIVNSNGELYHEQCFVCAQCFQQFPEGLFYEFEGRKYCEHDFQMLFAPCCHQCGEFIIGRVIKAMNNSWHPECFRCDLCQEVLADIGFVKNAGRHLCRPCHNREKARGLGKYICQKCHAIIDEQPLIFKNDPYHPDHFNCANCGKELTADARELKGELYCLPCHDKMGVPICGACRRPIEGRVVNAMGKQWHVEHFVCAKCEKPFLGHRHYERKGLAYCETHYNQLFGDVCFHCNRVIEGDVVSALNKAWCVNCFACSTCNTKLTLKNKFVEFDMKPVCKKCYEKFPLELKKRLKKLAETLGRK
UniProt Q9Y2Y9: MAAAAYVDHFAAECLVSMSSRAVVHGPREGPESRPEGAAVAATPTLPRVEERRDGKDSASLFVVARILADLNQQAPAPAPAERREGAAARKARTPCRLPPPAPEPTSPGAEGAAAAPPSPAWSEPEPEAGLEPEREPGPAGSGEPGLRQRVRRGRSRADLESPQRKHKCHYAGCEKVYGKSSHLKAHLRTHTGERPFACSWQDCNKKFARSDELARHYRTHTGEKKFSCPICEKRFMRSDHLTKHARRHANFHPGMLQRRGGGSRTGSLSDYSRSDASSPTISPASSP
UniProt P33176: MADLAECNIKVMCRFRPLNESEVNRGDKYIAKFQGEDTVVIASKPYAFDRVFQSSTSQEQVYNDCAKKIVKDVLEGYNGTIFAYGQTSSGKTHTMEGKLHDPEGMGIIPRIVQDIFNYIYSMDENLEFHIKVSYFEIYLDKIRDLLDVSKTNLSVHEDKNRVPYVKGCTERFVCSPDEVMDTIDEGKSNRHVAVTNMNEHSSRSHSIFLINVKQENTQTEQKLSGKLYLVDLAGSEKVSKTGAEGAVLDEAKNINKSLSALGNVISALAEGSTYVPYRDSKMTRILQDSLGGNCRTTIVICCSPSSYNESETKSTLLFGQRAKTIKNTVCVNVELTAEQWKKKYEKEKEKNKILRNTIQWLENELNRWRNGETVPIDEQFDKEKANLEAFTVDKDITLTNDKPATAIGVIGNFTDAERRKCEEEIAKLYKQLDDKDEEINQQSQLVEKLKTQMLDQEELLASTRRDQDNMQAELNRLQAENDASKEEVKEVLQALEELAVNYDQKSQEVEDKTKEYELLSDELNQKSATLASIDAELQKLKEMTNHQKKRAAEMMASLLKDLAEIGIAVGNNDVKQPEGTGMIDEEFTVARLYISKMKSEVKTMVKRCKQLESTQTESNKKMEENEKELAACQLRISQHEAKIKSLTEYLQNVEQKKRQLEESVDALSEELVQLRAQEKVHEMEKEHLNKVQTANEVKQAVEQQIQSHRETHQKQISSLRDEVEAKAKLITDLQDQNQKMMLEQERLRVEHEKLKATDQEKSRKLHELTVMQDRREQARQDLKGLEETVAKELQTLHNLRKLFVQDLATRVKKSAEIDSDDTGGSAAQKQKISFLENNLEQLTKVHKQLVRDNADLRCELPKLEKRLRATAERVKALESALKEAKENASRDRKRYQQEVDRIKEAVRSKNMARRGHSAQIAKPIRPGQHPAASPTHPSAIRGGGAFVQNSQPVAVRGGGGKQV
UniProt O00505, whole entry: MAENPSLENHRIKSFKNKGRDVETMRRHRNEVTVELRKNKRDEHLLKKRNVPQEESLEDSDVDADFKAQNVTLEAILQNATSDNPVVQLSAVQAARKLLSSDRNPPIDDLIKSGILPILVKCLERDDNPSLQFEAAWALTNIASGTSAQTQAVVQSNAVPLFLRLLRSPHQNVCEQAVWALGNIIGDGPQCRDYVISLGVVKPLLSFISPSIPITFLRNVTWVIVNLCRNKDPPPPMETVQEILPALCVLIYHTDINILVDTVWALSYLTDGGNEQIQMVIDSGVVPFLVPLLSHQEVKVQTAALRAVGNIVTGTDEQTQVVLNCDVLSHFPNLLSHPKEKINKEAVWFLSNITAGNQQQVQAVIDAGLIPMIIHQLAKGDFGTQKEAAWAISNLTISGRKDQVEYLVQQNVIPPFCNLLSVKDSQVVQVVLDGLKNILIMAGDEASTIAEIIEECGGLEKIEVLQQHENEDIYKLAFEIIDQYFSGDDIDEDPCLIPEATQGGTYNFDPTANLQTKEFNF
UniProt O60333: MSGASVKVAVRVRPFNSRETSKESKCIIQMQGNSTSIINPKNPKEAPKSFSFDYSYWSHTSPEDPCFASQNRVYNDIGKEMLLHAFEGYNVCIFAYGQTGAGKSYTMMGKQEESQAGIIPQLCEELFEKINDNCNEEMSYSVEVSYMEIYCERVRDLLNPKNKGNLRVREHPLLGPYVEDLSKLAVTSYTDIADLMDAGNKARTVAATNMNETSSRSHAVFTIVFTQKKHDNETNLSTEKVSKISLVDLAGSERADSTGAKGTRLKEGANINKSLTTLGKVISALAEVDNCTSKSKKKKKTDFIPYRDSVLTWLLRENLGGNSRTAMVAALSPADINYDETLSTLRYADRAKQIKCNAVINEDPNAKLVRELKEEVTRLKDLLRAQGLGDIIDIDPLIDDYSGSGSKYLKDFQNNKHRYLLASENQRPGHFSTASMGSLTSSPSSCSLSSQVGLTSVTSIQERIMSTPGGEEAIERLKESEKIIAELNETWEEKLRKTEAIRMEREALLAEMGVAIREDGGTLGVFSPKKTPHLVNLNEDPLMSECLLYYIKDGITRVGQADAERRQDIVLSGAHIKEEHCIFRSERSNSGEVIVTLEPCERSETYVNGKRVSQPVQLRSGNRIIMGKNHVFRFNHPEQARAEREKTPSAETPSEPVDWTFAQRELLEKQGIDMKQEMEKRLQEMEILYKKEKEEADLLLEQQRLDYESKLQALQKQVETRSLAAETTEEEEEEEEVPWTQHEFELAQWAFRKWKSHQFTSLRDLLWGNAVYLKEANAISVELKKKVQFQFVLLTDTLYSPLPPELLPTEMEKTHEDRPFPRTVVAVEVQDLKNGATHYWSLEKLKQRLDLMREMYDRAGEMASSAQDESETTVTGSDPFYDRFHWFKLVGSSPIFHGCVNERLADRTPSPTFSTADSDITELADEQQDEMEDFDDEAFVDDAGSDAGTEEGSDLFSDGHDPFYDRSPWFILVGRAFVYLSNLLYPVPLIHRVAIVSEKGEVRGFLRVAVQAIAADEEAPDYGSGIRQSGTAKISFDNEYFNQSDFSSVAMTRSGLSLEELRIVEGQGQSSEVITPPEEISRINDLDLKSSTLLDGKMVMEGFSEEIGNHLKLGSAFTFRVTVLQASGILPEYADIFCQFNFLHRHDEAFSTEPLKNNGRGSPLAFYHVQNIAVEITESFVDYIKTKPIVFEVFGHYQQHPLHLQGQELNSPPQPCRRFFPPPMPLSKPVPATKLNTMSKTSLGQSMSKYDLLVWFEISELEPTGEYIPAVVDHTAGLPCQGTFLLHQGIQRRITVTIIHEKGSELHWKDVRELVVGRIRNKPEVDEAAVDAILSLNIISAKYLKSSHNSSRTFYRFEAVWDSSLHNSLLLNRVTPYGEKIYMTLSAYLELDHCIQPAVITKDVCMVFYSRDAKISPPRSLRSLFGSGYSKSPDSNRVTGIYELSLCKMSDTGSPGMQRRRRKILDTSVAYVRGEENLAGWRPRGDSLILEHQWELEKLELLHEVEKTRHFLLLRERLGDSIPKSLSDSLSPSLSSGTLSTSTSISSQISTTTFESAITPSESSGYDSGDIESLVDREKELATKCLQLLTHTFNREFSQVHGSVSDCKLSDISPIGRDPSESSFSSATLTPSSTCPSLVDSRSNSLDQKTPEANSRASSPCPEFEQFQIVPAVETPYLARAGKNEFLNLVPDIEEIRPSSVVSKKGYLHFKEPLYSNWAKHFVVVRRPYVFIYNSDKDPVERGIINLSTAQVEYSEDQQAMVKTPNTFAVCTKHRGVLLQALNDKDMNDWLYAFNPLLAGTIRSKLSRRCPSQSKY
UniProt Q9ULH0: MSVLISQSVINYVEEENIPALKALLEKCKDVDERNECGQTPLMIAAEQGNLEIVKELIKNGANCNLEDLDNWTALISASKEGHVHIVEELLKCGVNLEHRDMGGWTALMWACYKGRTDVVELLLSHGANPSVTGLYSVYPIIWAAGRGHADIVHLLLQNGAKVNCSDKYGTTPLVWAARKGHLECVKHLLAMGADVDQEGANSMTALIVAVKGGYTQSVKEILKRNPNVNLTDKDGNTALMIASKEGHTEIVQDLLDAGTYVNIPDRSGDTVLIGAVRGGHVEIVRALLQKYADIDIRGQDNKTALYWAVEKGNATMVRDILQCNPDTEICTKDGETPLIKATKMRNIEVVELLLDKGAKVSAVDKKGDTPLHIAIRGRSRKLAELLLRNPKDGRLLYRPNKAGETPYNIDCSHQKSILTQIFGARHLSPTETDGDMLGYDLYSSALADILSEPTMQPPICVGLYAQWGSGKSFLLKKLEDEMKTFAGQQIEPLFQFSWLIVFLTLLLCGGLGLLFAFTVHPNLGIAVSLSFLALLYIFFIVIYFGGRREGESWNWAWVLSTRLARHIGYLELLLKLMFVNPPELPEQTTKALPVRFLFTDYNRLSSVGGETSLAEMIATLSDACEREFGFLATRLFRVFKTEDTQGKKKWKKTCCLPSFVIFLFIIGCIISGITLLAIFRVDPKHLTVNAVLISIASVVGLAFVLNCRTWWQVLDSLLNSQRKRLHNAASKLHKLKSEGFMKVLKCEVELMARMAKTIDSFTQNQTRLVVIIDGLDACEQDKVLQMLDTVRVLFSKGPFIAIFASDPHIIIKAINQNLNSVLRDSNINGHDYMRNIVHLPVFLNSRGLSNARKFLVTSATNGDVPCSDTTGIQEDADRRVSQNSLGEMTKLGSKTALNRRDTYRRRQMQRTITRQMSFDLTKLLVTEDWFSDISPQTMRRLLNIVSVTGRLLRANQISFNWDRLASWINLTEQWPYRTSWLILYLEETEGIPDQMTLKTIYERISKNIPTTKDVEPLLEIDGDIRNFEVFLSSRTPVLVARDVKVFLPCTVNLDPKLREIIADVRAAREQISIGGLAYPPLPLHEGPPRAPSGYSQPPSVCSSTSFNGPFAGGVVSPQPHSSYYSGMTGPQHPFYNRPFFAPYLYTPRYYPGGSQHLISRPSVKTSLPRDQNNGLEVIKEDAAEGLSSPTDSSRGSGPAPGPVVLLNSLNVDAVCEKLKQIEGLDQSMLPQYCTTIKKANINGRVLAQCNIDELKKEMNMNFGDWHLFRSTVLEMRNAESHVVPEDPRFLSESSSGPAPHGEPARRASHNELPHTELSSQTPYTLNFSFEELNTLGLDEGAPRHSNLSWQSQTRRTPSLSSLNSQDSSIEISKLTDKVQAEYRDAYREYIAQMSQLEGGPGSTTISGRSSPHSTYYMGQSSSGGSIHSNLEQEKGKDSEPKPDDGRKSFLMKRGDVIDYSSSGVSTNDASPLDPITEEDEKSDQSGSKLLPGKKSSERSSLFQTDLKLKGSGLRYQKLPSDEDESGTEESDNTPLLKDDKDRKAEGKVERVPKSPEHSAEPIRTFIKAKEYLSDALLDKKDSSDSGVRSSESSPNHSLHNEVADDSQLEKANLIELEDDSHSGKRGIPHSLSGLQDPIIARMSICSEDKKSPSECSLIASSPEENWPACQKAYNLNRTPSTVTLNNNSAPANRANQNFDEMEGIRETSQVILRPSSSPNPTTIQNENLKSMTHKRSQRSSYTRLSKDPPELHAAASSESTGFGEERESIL

| Target | dose-dependent thermal stabilisation call |
| --- | --- |
| HNRNPUL2 (UniProt Q1KMD3) | inactive: 0 |
| IVNS1ABP (UniProt Q9Y6Y0) | inactive: 0 |
| KIAA0586 (UniProt Q9BVV6) | inactive: 0 |
| LANCL1 (UniProt O43813) | inactive: 0 |
| LDHB (UniProt P07195) | inactive: 0 |
| KDM1B (UniProt Q8NB78) | inactive: 0 |
| HSPH1 (UniProt Q92598) | inactive: 0 |
| KCTD9 (UniProt Q7L273) | active: 1 |
| KLHL25 (UniProt Q9H0H3) | active: 1 |
| HYOU1 (UniProt Q9Y4L1) | inactive: 0 |
| LCOR (UniProt Q96JN0) | inactive: 0 |
| LIMD1 (UniProt Q9UGP4) | active: 1 |
| LIMS1 (UniProt P48059) | inactive: 0 |
| LARP1 (UniProt Q6PKG0) | inactive: 0 |
| KLHL18 (UniProt O94889) | inactive: 0 |
| LPIN1 (UniProt Q14693) | inactive: 0 |
| HNRNPR (UniProt O43390) | inactive: 0 |
| KLF13 (UniProt Q9Y2Y9) | inactive: 0 |
| ISG20 (UniProt Q96AZ6) | inactive: 0 |
| KLHL36 (UniProt Q8N4N3) | active: 1 |
| KIF5B (UniProt P33176) | active: 1 |
| KATNAL1 (UniProt Q9BW62) | inactive: 0 |
| KPNA3 (UniProt O00505) | inactive: 0 |
| JMJD1C (UniProt Q15652) | inactive: 0 |
| KIF1B (UniProt O60333) | active: 1 |
| HSPA14 (UniProt Q0VDF9) | inactive: 0 |
| KIDINS220 (UniProt Q9ULH0) | inactive: 0 |

2 consecutive records out of the list so far, quoted:

| Target | dose-dependent thermal stabilisation call |
| --- | --- |
| LDHB (UniProt P07195) | inactive: 0 |
| KDM1B (UniProt Q8NB78) | inactive: 0 |

Reference: the supplement of paper PMC7666118
